# The list shows a part of the results.
# B1: Epa21 (Candida glabrata) (protein)
# chain: MGSSHHHHHHSSGLVPRGSHMASTPNIESHPQGCSPVDTSGIKPGLKMDLYRFPITPPGTGCWSWDWLTVTPDFPRSGYWKWPKIAEVDGVVGPLHLDSGHPTCDPLTSVLPHGFNYLQSITTTNFTMVLHGYFVPKQSGKYTFEFKADDALLLNLGAGNAFSCCDYNNSQYNQGEYLAYAIWSKNNQTATLYLEKGIYYPIRVFYHNRCCGAYMDVVYYFNDSPIPNRDFSGLLFSIPDSDSCDANI
# Tests used:
# Test in all cases: glycan array binding signal (z-score within array); higher = stronger binding
# Conditions in all cases: glycan notation: IUPAC condensed, linker removed
# [1] = target: Fuc(a1-2)Gal(b1-4)[Fuc(a1-3)]GlcNAc
# Procedure, shortened: (§1)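 Arrays were curated from the Consortium for Functional Glycomics database, 3228 in total, and kept only where the protein sequence was available. Binding is expressed as a within-array Z-score. This score was averaged across arrays of the same protein sequence at different concentrations or buffers and across linkers, and negative values can be read as non-binding.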
# [2] = target: Fuc(a1-2)Gal(b1-4)[Fuc(a1-3)]GlcNAc(b1-2)Man(a1-3)[Fuc(a1-2)Gal(b1-4)[Fuc(a1-3)]GlcNAc(b1-2)Man(a1-6)]Man(b1-4)GlcNAc(b1-4)[Fuc(a1-6)]GlcNAc
# Procedure, shortened: as §1
# [3] = target: Fuc(a1-2)Gal(b1-4)[Fuc(a1-3)]GlcNAc(b1-2)[Fuc(a1-2)Gal(b1-4)[Fuc(a1-3)]GlcNAc(b1-4)]Man(a1-3)[Fuc(a1-2)Gal(b1-4)[Fuc(a1-3)]GlcNAc(b1-2)Man(a1-6)]Man(b1-4)GlcNAc(b1-4)GlcNAc
# Procedure, shortened: as §1
# [4] = target: Fuc(a1-2)Gal(b1-4)[Fuc(a1-3)]GlcNAc(b1-3)Gal(b1-4)[Fuc(a1-3)]GlcNAc
# Procedure, shortened: as §1
# [5] = target: Fuc(a1-2)Gal(b1-4)[Fuc(a1-3)]GlcNAc(b1-3)Gal(b1-4)[Fuc(a1-3)]GlcNAc(b1-3)Gal(b1-4)[Fuc(a1-3)]GlcNAc
# Procedure, shortened: as §1
# [6] = target: Fuc(a1-2)Gal(b1-4)[Fuc(a1-3)]GlcNAc(b1-3)GalNAc
# Procedure, shortened: as §1
# [7] = target: Fuc(a1-2)Gal(b1-4)[Fuc(a1-3)]GlcNAc(b1-3)[Neu5Ac(a2-6)Gal(b1-4)GlcNAc(b1-6)]Gal(b1-4)Glc
# Procedure, shortened: as §1
# [8] = target: Fuc(a1-2)Gal3S(b1-4)GlcNAc
# Procedure, shortened: as §1
# [9] = target: Fuc(a1-2)Gal6S(b1-3)GlcNAc
# Procedure, shortened: as §1
# [10] = target: Fuc(a1-2)Gal6S(b1-3)GlcNAc6S
# Procedure, shortened: as §1
# Fuc(a1-2)Gal6S(b1-4)Glc = target: Fuc(a1-2)Gal6S(b1-4)Glc
# Procedure, shortened: as §1
# [11] = target: Fuc(a1-2)Gal6S(b1-4)Glc6S
# Procedure, shortened: as §1
# Fuc(a1-2)[Gal(a1-3)]Gal = target: Fuc(a1-2)[Gal(a1-3)]Gal
# Procedure, shortened: as §1
# [12] = target: Fuc(a1-2)[Gal(a1-3)]Gal(b1-3)GalNAc
# Procedure, shortened: as §1
# [13] = target: Fuc(a1-2)[Gal(a1-3)]Gal(b1-3)GalNAc(b1-3)Gal(a1-4)Gal(b1-4)Glc
# Procedure, shortened: as §1
# [14] = target: Fuc(a1-2)[Gal(a1-3)]Gal(b1-3)GlcNAc
# Procedure, shortened: as §1
# [15] = target: Fuc(a1-2)[Gal(a1-3)]Gal(b1-3)GlcNAc(b1-2)Man(a1-3)[Fuc(a1-2)[Gal(a1-3)]Gal(b1-3)GlcNAc(b1-2)Man(a1-6)]Man(b1-4)GlcNAc(b1-4)GlcNAc
# Procedure, shortened: as §1
# [16] = target: Fuc(a1-2)[Gal(a1-3)]Gal(b1-3)GlcNAc(b1-2)Man(a1-3)[Fuc(a1-2)[Gal(a1-3)]Gal(b1-3)GlcNAc(b1-2)Man(a1-6)]Man(b1-4)GlcNAc(b1-4)[Fuc(a1-6)]GlcNAc
# Procedure, shortened: as §1
# [17] = target: Fuc(a1-2)[Gal(a1-3)]Gal(b1-3)GlcNAc(b1-3)GalNAc
# Procedure, shortened: as §1
# [18] = target: Fuc(a1-2)[Gal(a1-3)]Gal(b1-3)GlcNAc(b1-6)GalNAc
# Procedure, shortened: as §1
# [19] = target: Fuc(a1-2)[Gal(a1-3)]Gal(b1-4)Glc
# Procedure, shortened: as §1
# [20] = target: Fuc(a1-2)[Gal(a1-3)]Gal(b1-4)GlcNAc
# Procedure, shortened: as §1
# [21] = target: Fuc(a1-2)[Gal(a1-3)]Gal(b1-4)GlcNAc(b1-2)Man
# Procedure, shortened: as §1
# [22] = target: Fuc(a1-2)[Gal(a1-3)]Gal(b1-4)GlcNAc(b1-2)Man(a1-3)[Fuc(a1-2)[Gal(a1-3)]Gal(b1-4)GlcNAc(b1-2)Man(a1-6)]Man(b1-4)GlcNAc(b1-4)GlcNAc
# Procedure, shortened: as §1
# [23] = target: Fuc(a1-2)[Gal(a1-3)]Gal(b1-4)GlcNAc(b1-2)Man(a1-3)[Fuc(a1-2)[Gal(a1-3)]Gal(b1-4)GlcNAc(b1-2)Man(a1-6)]Man(b1-4)GlcNAc(b1-4)[Fuc(a1-6)]GlcNAc
# Procedure, shortened: as §1
# [24] = target: Fuc(a1-2)[Gal(a1-3)]Gal(b1-4)GlcNAc(b1-3)GalNAc
# Procedure, shortened: as §1
# [25] = target: Fuc(a1-2)[Gal(a1-3)]Gal(b1-4)GlcNAc(b1-3)[Fuc(a1-2)[Gal(a1-3)]Gal(b1-4)GlcNAc(b1-6)]GalNAc
# Procedure, shortened: as §1
# [26] = target: Fuc(a1-2)[Gal(a1-3)]Gal(b1-4)GlcNAc(b1-6)GalNAc
# Procedure, shortened: as §1
# [27] = target: Fuc(a1-2)[Gal(a1-3)]Gal(b1-4)[Fuc(a1-3)]Glc
# Procedure, shortened: as §1
# [28] = target: Fuc(a1-2)[Gal(a1-3)]Gal(b1-4)[Fuc(a1-3)]GlcNAc
# Procedure, shortened: as §1
# [29] = target: Fuc(a1-2)[Gal(a1-3)]Gal(b1-4)[Fuc(a1-3)]GlcNAc(b1-3)GalNAc
# Procedure, shortened: as §1
# [30] = target: Fuc(a1-2)[Gal(a1-4)]Gal(b1-4)GlcNAc
# Procedure, shortened: as §1
# [31] = target: Fuc(a1-2)[GalNAc(a1-3)]Gal
# Procedure, shortened: as §1
# [32] = target: Fuc(a1-2)[GalNAc(a1-3)]Gal(b1-3)GalNAc(a1-3)[Fuc(a1-2)]Gal(b1-4)GlcNAc
# Procedure, shortened: as §1
# [33] = target: Fuc(a1-2)[GalNAc(a1-3)]Gal(b1-3)GalNAc(b1-3)Gal(a1-4)Gal(b1-4)Glc
# Procedure, shortened: as §1
# [34] = target: Fuc(a1-2)[GalNAc(a1-3)]Gal(b1-3)GlcNAc
# Procedure, shortened: as §1
# [35] = target: Fuc(a1-2)[GalNAc(a1-3)]Gal(b1-3)GlcNAc(b1-2)Man(a1-3)[Fuc(a1-2)[GalNAc(a1-3)]Gal(b1-3)GlcNAc(b1-2)Man(a1-6)]Man(b1-4)GlcNAc(b1-4)GlcNAc
# Procedure, shortened: as §1
# [36] = target: Fuc(a1-2)[GalNAc(a1-3)]Gal(b1-3)GlcNAc(b1-2)Man(a1-3)[Fuc(a1-2)[GalNAc(a1-3)]Gal(b1-3)GlcNAc(b1-2)Man(a1-6)]Man(b1-4)GlcNAc(b1-4)[Fuc(a1-6)]GlcNAc
# Procedure, shortened: as §1
binder,measurement,setting,value
B1,glycan array binding signal (z-score),[1],-0.576
same,glycan array binding signal (z-score),[2],0.665
same,glycan array binding signal (z-score),[3],1.68
same,glycan array binding signal (z-score),[4],-1.17
same,glycan array binding signal (z-score),[5],-0.736
same,glycan array binding signal (z-score),[6],1.41
same,glycan array binding signal (z-score),[7],-0.544
same,glycan array binding signal (z-score),[8],-0.281
same,glycan array binding signal (z-score),[9],-0.147
same,glycan array binding signal (z-score),[10],4.29
same,glycan array binding signal (z-score),Fuc(a1-2)Gal6S(b1-4)Glc,-0.477
same,glycan array binding signal (z-score),[11],-0.585
same,glycan array binding signal (z-score),Fuc(a1-2)[Gal(a1-3)]Gal,-0.505
same,glycan array binding signal (z-score),[12],-0.27
same,glycan array binding signal (z-score),[13],-0.398
same,glycan array binding signal (z-score),[14],-0.094
same,glycan array binding signal (z-score),[15],-0.507
same,glycan array binding signal (z-score),[16],0.177
same,glycan array binding signal (z-score),[17],-0.564
same,glycan array binding signal (z-score),[18],0.169
same,glycan array binding signal (z-score),[19],0.212
same,glycan array binding signal (z-score),[20],-0.541
same,glycan array binding signal (z-score),[21],-0.705
same,glycan array binding signal (z-score),[22],-0.181
same,glycan array binding signal (z-score),[23],-0.518
same,glycan array binding signal (z-score),[24],-0.264
same,glycan array binding signal (z-score),[25],1.16
same,glycan array binding signal (z-score),[26],-0.214
same,glycan array binding signal (z-score),[27],-0.821
same,glycan array binding signal (z-score),[28],0.234
same,glycan array binding signal (z-score),[29],0.814
same,glycan array binding signal (z-score),[30],0.581
same,glycan array binding signal (z-score),[31],-0.529
same,glycan array binding signal (z-score),[32],-0.201
same,glycan array binding signal (z-score),[33],-0.339
same,glycan array binding signal (z-score),[34],0.322
same,glycan array binding signal (z-score),[35],-0.794
same,glycan array binding signal (z-score),[36],-0.396

# Rewritten with tabs: entries from further up
binder	measurement	setting	value
B1	glycan array binding signal (z-score)	[21]	-0.705
same	glycan array binding signal (z-score)	[22]	-0.181

# — the supplement of paper PMC8728848
